Assay [1] deals with LacI^Cys-Lite (LacI^ΔCterm with C107A, C140A, C281A) (E. coli) (UniProt P03023). The assay is described as follows: dynamic light scattering; W130i DLS system, BladeCell cuvette, 4°C; 12.1 mg/mL LacI^ΔCterm, 12.8 mg/mL LacI^Cys-Lite, 12.5 mg/mL LacI^Dimer; hydrodynamic diameter; dimer to monomers; both purified.
Assay [2] has the same target. The assay is described as follows: SEC; analytical gel filtration on HiLoad 16/600 Superdex 200, 0.2 mL/min, buffer C (200 mM Tris-HCl pH 7.5, 200 mM KCl, 1 mM EDTA, 0.5 mM TCEP); column calibrated with proteins of known molecular weight; dimer to monomers; both purified. For orientation: SEC sorts molecules by how far they enter the pores of the column.

Sequences of proteins named here, by UniProt entry; tags and fusion partners are left off. A change or cut given only in a name is not applied to a line headed by its entry.
UniProt P03023: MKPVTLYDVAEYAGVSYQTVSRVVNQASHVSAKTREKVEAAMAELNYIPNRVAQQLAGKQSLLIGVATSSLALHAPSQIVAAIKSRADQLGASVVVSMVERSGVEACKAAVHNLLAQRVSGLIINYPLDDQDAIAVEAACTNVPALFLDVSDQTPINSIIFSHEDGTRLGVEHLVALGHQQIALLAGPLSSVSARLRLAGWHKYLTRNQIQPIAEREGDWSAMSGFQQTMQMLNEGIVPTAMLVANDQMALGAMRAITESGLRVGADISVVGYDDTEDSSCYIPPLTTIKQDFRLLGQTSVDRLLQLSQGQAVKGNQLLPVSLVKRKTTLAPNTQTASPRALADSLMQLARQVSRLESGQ

Results are given in words; binding and its absence hold for the method and conditions named.

For the substance “LacI^Cys-Lite (LacI^ΔCterm with C107A, C140A, C281A) (from UniProt P03023 1-338) (domain or fragment)”, the results for the binding result in assay [1] and in assay [2] were “no binding (tested: 12.8 mg/mL)” and “no binding”, respectively.
